From article PMC3511337
Results are given in words; binding and its absence hold for the method and conditions named. In cells and extracts the contact can be indirect. Some binding calls cover weakened binding; strength is not graded here. For some assays here: Tags and fused reporters may be left off the sequences shown.

The chains behind the UniProt entries cited, without tags or fusion partners.
UniProt Q96GD4: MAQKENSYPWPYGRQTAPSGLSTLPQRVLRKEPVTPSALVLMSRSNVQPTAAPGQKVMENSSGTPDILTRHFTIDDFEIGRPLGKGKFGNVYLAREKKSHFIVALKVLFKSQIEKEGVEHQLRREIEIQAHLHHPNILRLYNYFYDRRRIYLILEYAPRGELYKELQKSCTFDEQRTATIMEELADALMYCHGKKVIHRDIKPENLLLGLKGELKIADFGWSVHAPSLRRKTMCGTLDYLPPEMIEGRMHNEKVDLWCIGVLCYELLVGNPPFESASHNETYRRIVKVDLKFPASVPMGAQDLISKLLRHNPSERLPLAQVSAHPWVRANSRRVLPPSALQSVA
UniProt P25490: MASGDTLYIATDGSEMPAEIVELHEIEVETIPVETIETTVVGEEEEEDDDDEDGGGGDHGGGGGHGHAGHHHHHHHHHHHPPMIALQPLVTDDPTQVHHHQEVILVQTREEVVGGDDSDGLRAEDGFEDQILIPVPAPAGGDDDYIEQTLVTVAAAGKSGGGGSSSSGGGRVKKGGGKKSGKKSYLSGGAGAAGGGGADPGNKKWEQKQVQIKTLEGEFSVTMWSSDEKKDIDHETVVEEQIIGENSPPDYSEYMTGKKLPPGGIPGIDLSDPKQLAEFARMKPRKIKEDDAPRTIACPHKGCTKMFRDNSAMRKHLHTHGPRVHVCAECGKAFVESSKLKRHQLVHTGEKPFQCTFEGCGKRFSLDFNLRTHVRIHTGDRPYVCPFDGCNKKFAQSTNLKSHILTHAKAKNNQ

Columns and labels:
HA-Aurora A = target: T1, HA-Aurora A (UniProt O14965); experiment: co-IP; HEK293 cells transiently transfected with Flag-Aurora B or HA-Aurora A, nocodazole block; Aurora B precipitated with anti-Flag mouse MAb cross-linked to resin beads, Aurora A with anti-HA antibody; blot probed with anti-YY1; non-transfected cells as control
T1 sequence: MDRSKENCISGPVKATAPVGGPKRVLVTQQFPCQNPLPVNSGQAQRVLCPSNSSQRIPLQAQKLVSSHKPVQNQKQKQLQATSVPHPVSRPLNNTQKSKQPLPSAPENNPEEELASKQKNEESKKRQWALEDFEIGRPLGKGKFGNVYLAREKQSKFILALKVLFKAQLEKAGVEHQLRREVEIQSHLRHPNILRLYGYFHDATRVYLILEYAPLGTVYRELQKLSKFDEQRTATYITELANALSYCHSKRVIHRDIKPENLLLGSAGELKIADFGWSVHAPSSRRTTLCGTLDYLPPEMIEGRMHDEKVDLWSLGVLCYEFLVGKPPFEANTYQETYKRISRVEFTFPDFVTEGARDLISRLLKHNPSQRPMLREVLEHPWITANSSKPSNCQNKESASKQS

Flag-Aurora B = Flag-Aurora B (UniProt Q96GD4); experiment: as above

binding (HA-Aurora A): binds
binding (Flag-Aurora B): binds
Substance: Yin Yang 1 (YY1), endogenous (from UniProt P25490 1-414)
